The record followed here is publication PMC3798277.

Chains of the proteins cited; added tags and fusions are not shown.
UniProt P63073: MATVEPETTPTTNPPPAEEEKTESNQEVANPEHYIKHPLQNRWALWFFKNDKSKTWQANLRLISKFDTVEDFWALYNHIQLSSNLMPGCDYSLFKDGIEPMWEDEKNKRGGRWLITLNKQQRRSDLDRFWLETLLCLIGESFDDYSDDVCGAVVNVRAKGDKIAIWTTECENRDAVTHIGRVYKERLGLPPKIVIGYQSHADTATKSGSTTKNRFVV
UniProt Q99020: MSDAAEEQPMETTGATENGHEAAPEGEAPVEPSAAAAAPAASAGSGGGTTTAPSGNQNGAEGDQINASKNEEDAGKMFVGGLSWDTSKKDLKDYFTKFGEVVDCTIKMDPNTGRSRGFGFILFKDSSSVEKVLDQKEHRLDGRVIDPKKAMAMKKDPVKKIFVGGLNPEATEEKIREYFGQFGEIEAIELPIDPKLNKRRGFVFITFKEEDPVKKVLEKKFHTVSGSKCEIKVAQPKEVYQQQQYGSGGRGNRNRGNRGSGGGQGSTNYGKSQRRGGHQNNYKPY
UniProt Q9JMB7: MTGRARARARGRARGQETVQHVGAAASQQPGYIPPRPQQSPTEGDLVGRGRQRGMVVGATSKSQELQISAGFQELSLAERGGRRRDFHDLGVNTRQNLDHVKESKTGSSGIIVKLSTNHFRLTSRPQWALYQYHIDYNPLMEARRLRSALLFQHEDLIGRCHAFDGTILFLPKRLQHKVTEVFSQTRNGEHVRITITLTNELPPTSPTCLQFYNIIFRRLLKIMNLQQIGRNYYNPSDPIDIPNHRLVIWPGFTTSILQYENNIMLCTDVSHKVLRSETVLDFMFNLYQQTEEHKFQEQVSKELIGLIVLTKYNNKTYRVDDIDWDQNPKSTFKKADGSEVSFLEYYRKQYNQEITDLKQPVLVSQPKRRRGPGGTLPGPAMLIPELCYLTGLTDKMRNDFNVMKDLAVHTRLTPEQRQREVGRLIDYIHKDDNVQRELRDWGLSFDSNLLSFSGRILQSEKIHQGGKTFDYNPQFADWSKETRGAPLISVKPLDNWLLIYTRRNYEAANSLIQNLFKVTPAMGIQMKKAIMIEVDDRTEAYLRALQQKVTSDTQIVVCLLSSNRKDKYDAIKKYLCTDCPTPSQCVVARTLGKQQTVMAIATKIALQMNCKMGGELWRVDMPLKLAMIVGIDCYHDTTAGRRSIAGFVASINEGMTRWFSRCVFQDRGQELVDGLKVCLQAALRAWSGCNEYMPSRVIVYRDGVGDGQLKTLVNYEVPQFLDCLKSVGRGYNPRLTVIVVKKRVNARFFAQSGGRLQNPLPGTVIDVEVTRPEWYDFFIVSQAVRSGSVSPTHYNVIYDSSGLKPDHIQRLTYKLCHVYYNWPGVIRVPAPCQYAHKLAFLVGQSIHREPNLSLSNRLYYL

Results are given in words; binding and its absence hold for the method and conditions named. In cells and extracts the contact can be indirect.

For test [1], the target named is cap binding protein eIF4E (mouse (endogenous in testis)) (UniProt P63073). Kind of test: pull-down; 7-methyl-GTP (m7GTP)-Sepharose 4B or protein G-Sepharose (control) incubated overnight at 4°C with cytoplasmic lysate of adult mouse testis in 1x PBS, 0.2% NP-40; lysate untreated or treated with 100 µg/ml RNase A; bound proteins on immunoblots. In general terms: A western blot detects proteins with antibodies after separation by electrophoresis.

In test [2] the target is CArG box binding factor A (CBF-A) p37 isoform (mouse (endogenous in testis)) (UniProt Q99020). The experiment in a line: co-IP; cytoplasmic fraction of mouse testis lysate (adult; also 30 dpp), untreated or treated with 100 µg/ml RNase A, incubated overnight with anti-CBF-A antibodies SAK22 (p37 and p42) or ICCI (p42 only) or control IgGs; Protein A-Sepharose; immunoblots.

In the case of “CArG box binding factor A (CBF-A) p37 isoform (from UniProt Q99020 1-285)”, in test [1], the binding result is reported as “no binding”.

For “piRNA-binding protein MIWI (from UniProt Q9JMB7 1-862)”, the binding entry in test [2] was “no binding”.

B1: MVH (Mouse Vasa Homolog/DDX4) (protein, UniProt Q61496 1-702)
chain: MGDEDWEAEILKPHVSSYVPVFEKDKYSSGANGDTFNRTSASSDIGESSKKENTSTTGGFGRGKGFGNRGFLNNKFEEGDSSGFWKESNNDCEDNQTRSRGFSKRGGCQDGNDSEASGPFRRGGRGSFRGCRGGFGLGRPNSESDQDQGTQRGGGLFGSRKPAASDSGNGDTYQSRSGSGRGGYKGLNEEVVTGSGKNSWKSETEGGESSDSQGPKVTYIPPPPPEDEDSIFAHYQTGINFDKYDTILVEVSGHDAPPAILTFEEANLCQTLNNNIAKAGYTKLTPVQKYSIPIVLAGRDLMACAQTGSGKTAAFLLPILAHMMRDGITASRFKELQEPECIIVAPTRELINQIYLEARKFSFGTCVRAVVIYGGTQFGHSVRQIVQGCNILCATPGRLMDIIGKEKIGLKQVKYLVLDEADRMLDMGFGPEMKKLISCPGMPSKEQRQTLLFSATFPEEIQRLAGDFLKSSYLFVAVGQVGGACRDVQQTILQVGQYSKREKLVEILRNIGDERTMVFVETKKKADFIATFLCQEKISTTSIHGDREQREREQALGDFRCGKCPVLVATSVAARGLDIENVQHVINFDLPSTIDEYVHRIGRTGRCGNTGRAISFFDTDSDNHLAQPLVKVLSDAQQDVPAWLEEIAFSTYVPPSFSSSTRGGAVFASVDTRKNYQGKHTLNTAGISSSQAPNPVDDESWD
For B1, the binding result in test [2] is “no binding”.
